Experimental data as given in PubChem BioAssay AID1671190 (National Center for Advancing Translational Sciences (NCATS), 2021).
In all, about 580,000 compounds went through this assay and about 6,100 (1.1%) were called active. The inconclusive results got no clear call from the source; some entries with a clear call stand among them for comparison. The call rests on the fitted dose curve; in most records, active means well fitted inhibition curve with a large enough effect; inconclusive means small, poorly fitted or top-dose-only effect, or another doubt; inactive means no such curve, though single readings can be large or run the other way. A potency beside an inconclusive call is a rough fit, not a confirmed value.

The chains behind the UniProt entries cited, without tags or fusion partners. Where a name states a change or a piece, a line headed by the entry shows the natural chain unless it says otherwise.
UniProt P18054: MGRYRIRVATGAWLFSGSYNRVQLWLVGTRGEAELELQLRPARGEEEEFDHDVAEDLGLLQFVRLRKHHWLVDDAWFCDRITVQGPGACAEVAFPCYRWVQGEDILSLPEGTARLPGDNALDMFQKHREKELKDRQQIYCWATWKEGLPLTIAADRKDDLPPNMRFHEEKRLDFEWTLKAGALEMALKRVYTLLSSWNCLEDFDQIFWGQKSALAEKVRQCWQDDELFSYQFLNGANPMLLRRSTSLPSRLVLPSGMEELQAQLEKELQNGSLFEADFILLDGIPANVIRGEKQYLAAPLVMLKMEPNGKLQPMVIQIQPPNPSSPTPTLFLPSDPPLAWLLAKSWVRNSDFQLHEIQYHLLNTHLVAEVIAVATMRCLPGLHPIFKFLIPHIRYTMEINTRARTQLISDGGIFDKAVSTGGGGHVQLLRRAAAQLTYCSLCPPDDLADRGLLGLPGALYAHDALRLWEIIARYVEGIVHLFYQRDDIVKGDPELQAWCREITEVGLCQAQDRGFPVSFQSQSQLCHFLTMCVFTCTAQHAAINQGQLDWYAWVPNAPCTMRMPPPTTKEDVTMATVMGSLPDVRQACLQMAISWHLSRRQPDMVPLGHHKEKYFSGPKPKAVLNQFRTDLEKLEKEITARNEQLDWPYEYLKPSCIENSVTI

Biological target: Polyunsaturated fatty acid lipoxygenase ALOX12 (Homo sapiens) (UniProt P18054)
Assay: Primary qHTS assay for inhibitors of human arachidonate 12S-lipoxygenase (ALOX12): Round 2
Details: purified 12hLO, xylenol orange hydroperoxide absorbance; activity change, negative = inhibition: at 108 µM (top of the series) unless noted
In short: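 Purified human 12hLO (150 nM final) in 25 mM Hepes, 0.01% Triton X-100, pH 7.0 was preincubated 15 min at room temperature with compound. Then 40 uM arachidonic acid was added, 30 min. Hydroperoxide was read by Fe-XO absorbance ratio 573/405 nm.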
On the % scale 0 is the no-effect control and ±100 the full control effect; potency means the concentration at half of the fitted maximal effect.

SMILES | Potency | activity change, negative = inhibition
CC(C)(Oc1ccc(Cl)cc1)C(=O)O | inconclusive: 1.26 µM [inhibitor, full curve, poor fit] | 
O=S(=O)(CCNCc1ccccc1)NC1CCCCC1 |  | inactive: -2.63%
O=C(c1ccco1)N(Cc1cccnc1)Cc1cc2ccccc2[nH]c1=O |  | inactive: 1.95%
COc1cc(/C=N/NC(=O)c2ccoc2C)cc(OC)c1OC |  | inactive: -6.36%
CCN1CCN(c2ccc3cc(S(=O)(=O)N4CCOCC4)ccc3n2)CC1 | active: 1.78 µM | 
CCCC(C(=O)NC(C)(C)C)N(CC1CCCO1)C(=O)CNS(=O)(=O)c1ccc(F)cc1 (centres undefined) | inconclusive: 126 µM [inhibitor, single point] | 
COC(=O)c1[nH]c2cc(OC)ccc2c1NC(=O)CCN1CCN(Cc2ccc3c(c2)OCO3)CC1 | inconclusive: 35.5 µM [inhibitor, partial curve, poor fit] | 
O=C(/C=C/c1cccs1)NC(=S)NNC(=O)Cc1cccs1 |  | inactive: 262%
CCCCN1C(=O)NC(NC(=O)c2ccco2)(C(F)(F)F)C1=O (centres undefined) | inconclusive: 0.112 µM [inhibitor, full curve, poor fit] | 
CNC(=O)N1CCC(C2CCN(C(=O)c3cccs3)C2)CC1 (centres undefined) | inconclusive: 6.31 µM [inhibitor, partial curve, poor fit] | 
COc1cc(C)cc2oc(=O)c(CC(=O)NCc3ccc(C)cc3)c(C)c12 |  | inactive: -7.59%
O=c1cc(-c2cccnc2)oc2c1ccc1ccccc12 |  | inactive: 142%
CC(C)c1ccc(NC(=O)C2CCCN2S(=O)(=O)c2cccc3nsnc23)cc1 (centres undefined) | inconclusive: 17.8 µM [inhibitor, partial curve, poor fit] | 
O=C(Nc1ccc(Br)cc1Cl)c1cnccn1 | active: 31.6 µM | 
Cc1cc(C)n2cc(CSc3nnc(-c4ccccc4)c(-c4ccccc4)n3)nc2n1 |  | inactive: 0%
O=S(=O)(Nc1ccc2nc(-c3cccc(Cl)c3)oc2c1)c1ccccc1 | inconclusive: 50.1 µM [inhibitor, partial curve, poor fit] | 
Cc1cnc(C(=O)OCC(=O)N2c3ccccc3NC(=O)C2(C)C)cn1 | inconclusive: 39.8 µM [inhibitor, partial curve, poor fit] | 
CCOc1ccc(S(=O)(=O)NNS(=O)(=O)c2ccc(C)cc2C)cc1 | inconclusive: 44.7 µM [inhibitor, partial curve, poor fit] | 
COc1ccc(S(=O)(=O)NCCCCC(=O)O)cc1C(=O)O |  | inactive: 0.229%
C/C(=C\[C@@H](NP(=O)(c1ccccc1)c1ccccc1)c1ccccc1)CO[Si](c1ccccc1)(c1ccccc1)C(C)(C)C | inconclusive: 50.1 µM [inhibitor, partial curve, poor fit] | 
Cc1c(Cl)cccc1NC(=O)Cn1cnc2c1c(=O)n(C)c(=O)n2C | inconclusive: 100 µM [inhibitor, single point] | 
CN(CC(=O)Nc1ccc(Cl)c(C(F)(F)F)c1)C(=O)/C=C/c1ccco1 | inconclusive: 112 µM [inhibitor, single point] | 

Three structures from above, ordered by formula weight, largest number first:
SMILES | Potency | activity change, negative = inhibition
CCN1CCN(c2ccc3cc(S(=O)(=O)N4CCOCC4)ccc3n2)CC1 | active: 1.78 µM | 
Cc1c(Cl)cccc1NC(=O)Cn1cnc2c1c(=O)n(C)c(=O)n2C | inconclusive: 100 µM [inhibitor, single point] | 
O=C(Nc1ccc(Br)cc1Cl)c1cnccn1 | active: 31.6 µM | 

(list continues)

SMILES | Potency | activity change, negative = inhibition
COCCN1C(=O)c2ccccc2C(C(=O)Nc2nc(C)cs2)C12CCCCC2 (centres undefined) |  | inactive: 15.9%
C(#CCN1CCOCC1)CC(c1ccccc1)c1ccccc1 | inconclusive: 2 µM [inhibitor, full curve, poor fit] | 
COc1ccc(NC(=O)Cc2c(C)n(C(=O)c3ccc(Cl)cc3)c3ccc(OC)cc23)cc1 |  | inactive: -23.5%
O=C(NCc1ccc(F)cc1)c1cc(-c2ccc[nH]2)n[nH]1 | inconclusive: 31.6 µM [inhibitor, full curve] | 
Cc1c(Cl)cccc1NC(=O)COC(=O)c1ccc2ccccc2n1 | inconclusive: 15.8 µM [inhibitor, full curve] | 
COc1ccc(C)cc1NC(=O)c1cnc2scc(C)n2c1=O |  | inactive: -4.45%
CCc1ccc(NC(=O)Cn2c(=O)oc3cc(S(=O)(=O)N4CCCCCC4)ccc32)cc1 |  | inconclusive: -32.9% [inhibitor]
O=c1[nH]c(C2CCCN(Cc3ccc(-c4ccccc4)cc3)C2)nc2ccc(F)cc12 (centres undefined) | inconclusive: 35.5 µM [inhibitor, partial curve] | 
O=C(NCCNC(=O)c1cc(F)cc(F)c1)c1cc(F)cc(F)c1 |  | inactive: -2.36%
O=C(CCCC(=O)OCC(=O)c1ccc([N+](=O)[O-])cc1)Nc1cc(C(F)(F)F)ccc1Cl | inconclusive: 100 µM [inhibitor, single point] | 
Cc1cc(NC(=O)c2ccc(NC(=O)C3=CSCCO3)cc2)ccc1Br | inconclusive: 141 µM [inhibitor, single point] | 
COc1cc(/C=N/n2c(-c3ccc4c(c3)NC(=O)CO4)csc2=Nc2cccc(C)c2)ccc1O | inconclusive: 0.562 µM [inhibitor, full curve, poor fit] | 
CCOc1ccc(NC(=O)Cn2cnc3c(nnn3Cc3ccc(C)cc3)c2=O)cc1 | inconclusive: 63.1 µM [inhibitor, partial curve, poor fit] | 
COc1cc(C(=O)N2CCC(Cc3nc(C(C)C)no3)CC2)cc(OC)c1OC |  | inactive: 26.7%
O=C(c1ccccc1)c1cc(Cl)ccc1N1C(=O)C=CC1=O | active: 7.94 µM | 
CC1CCN(CCCNC(=O)c2ccccc2C(F)(F)F)CC1 |  | inactive: -0.465%
CCN(CC)S(=O)(=O)c1ccc(N2CCOCC2)c(NC(=O)c2ccc(N3CCCC3=O)cc2)c1 | inconclusive: 0.447 µM [inhibitor, full curve, poor fit] | 
CN(C)CCC(=O)N1Cc2ccccc2CC2(CCCCN2CC2CCOCC2)C1 (centres undefined) | inconclusive: 35.5 µM [inhibitor, full curve, poor fit] | 
Cc1ccc(C(=O)N2CCC(C(=O)N3CCCCCC3)CC2)cc1S(=O)(=O)N1CCCCC1 | inconclusive: 44.7 µM [inhibitor, partial curve, poor fit] | 
O=C(CN1CCN(C(=O)CCc2ncc(-c3ccccc3Cl)o2)CC1)Nc1ccc(F)cc1 |  | inactive: 1.96%
CC(=O)N/N=C(\N)c1nonc1N |  | inactive: 201%
COC(=O)c1[nH]c2ccccc2c1NC(=O)CCC1CCCC1 | inconclusive: 100 µM [inhibitor, partial curve, poor fit] | 
